Experimental data: PubChem BioAssay AID504784 (Drosophila RNAi Screening Center, 2011)
Test: 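Fly genes whose silencing alters how much lipid cells keep in droplets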 (primary screen). Cells: Drosophila Kc167 embryonic cells. Reagent: long dsRNA against Drosophila genes, about 250 ng dsRNA per well. Time to read-out: 4 days. Conditions: cells fed 400 µM oleic acid bound to BSA. Detection: 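Microscope images give a droplet-to-nucleus area ratio, taken as log and converted to a screen-wide B-score; higher values mean greater lipid storage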. Direction: droplet/nuclear area B-score: higher = more stored lipid (overstorage).
In all, the deposit lists about 17,000 reagents; below is a random part of those that have a named target and a result. 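Each column is one replicate's B-score; the combined score over replicates was not deposited, so single values may mislead.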 Not all columns of the deposit are shown. No sequences are given here.

With CG1231 [DRSC08267], what does the deposit list?
droplet/nuclear area B-score, replicate 1: -0.956

What is on record for CG32106 [DRSC09219]?
droplet/nuclear area B-score, replicate 1: -0.674

For CG12316 [DRSC09879], how do the results read?
droplet/nuclear area B-score, replicate 1: -0.132

What did the screen give for tipE (temperature-induced paralytic E) [DRSC08738]?
droplet/nuclear area B-score, replicate 1: 0.483

For Rgk1 (retired record) [DRSC07343], what does the deposit list?
droplet/nuclear area B-score, replicate 1: 0.43

With Rgk1 (retired record) [DRSC07344], what was measured?
droplet/nuclear area B-score, replicate 1: -0.89

What did the screen give for CG31104 [DRSC14658]?
droplet/nuclear area B-score, replicate 1: -1.17

For Acp53Ea (Accessory gland protein 53Ea) [DRSC05916], what was measured?
droplet/nuclear area B-score, replicate 1: -0.0533

With Polr1E (RNA polymerase I subunit E) [DRSC14506], what does the deposit list?
droplet/nuclear area B-score, replicate 1: -0.00245

With Polr1E (RNA polymerase I subunit E) [DRSC15358], how do the results read?
droplet/nuclear area B-score, replicate 1: 0.887

With Ir52d (Ionotropic receptor 52d) [DRSC06264], what was measured?
droplet/nuclear area B-score, replicate 1: 0.0227

With xit (xiantuan) [DRSC18364], what does the deposit list?
droplet/nuclear area B-score, replicate 1: -1.63

What is on record for Jon25Bii (Jonah 25Bii) [DRSC03114]?
droplet/nuclear area B-score, replicate 1: 0.972

How did the screen score CG9837 [DRSC16573]?
droplet/nuclear area B-score, replicate 1: 0.313

For CG7101 [DRSC20023], what does the deposit list?
droplet/nuclear area B-score, replicate 1: -0.00383

How did the screen score CG7101 [DRSC22845]?
droplet/nuclear area B-score, replicate 1: -0.357

What did the screen give for CtsK1 (Cathepsin K1) [DRSC08742]?
droplet/nuclear area B-score, replicate 1: 1.16

What did the screen give for Fpgs2 (Folylpolyglutamate synthase 2) [DRSC00600]?
droplet/nuclear area B-score, replicate 1: 0.517

How did the screen score tmod (tropomodulin) [DRSC14314]?
droplet/nuclear area B-score, replicate 1: 0.546

What did the screen give for tmod (tropomodulin) [DRSC15076]?
droplet/nuclear area B-score, replicate 1: -0.188

What did the screen give for tmod (tropomodulin) [DRSC17062]?
droplet/nuclear area B-score, replicate 1: -1.19

Which result is listed for CG4496 [DRSC02753]?
droplet/nuclear area B-score, replicate 1: -3.22

For CAH14 (Carbonic anhydrase 14) [DRSC04234], how do the results read?
droplet/nuclear area B-score, replicate 1: 1.21

Which result is listed for CAH14 (Carbonic anhydrase 14) [DRSC22160]?
droplet/nuclear area B-score, replicate 1: -0.0732

What did the screen give for BOD1 (Biorientation Defective 1) [DRSC15824]?
droplet/nuclear area B-score, replicate 1: -0.134

For CG7058 [DRSC20021], what does the deposit list?
droplet/nuclear area B-score, replicate 1: -0.952

Which result is listed for Rnb (R and B) [DRSC16325]?
droplet/nuclear area B-score, replicate 1: 0.461

How did the screen score CG11231 (retired record) [DRSC17207]?
droplet/nuclear area B-score, replicate 1: -2.04

What is on record for fry (furry) [DRSC08993]?
droplet/nuclear area B-score, replicate 1: 0.0458

With fry (furry) [DRSC10172], what does the deposit list?
droplet/nuclear area B-score, replicate 1: -0.13

Which result is listed for fry (furry) [DRSC10709]?
droplet/nuclear area B-score, replicate 1: 0.169

With fry (furry) [DRSC10712], what does the deposit list?
droplet/nuclear area B-score, replicate 1: 1.18

For BomT2 (Bomanin Tailed 2) [DRSC06631], what does the deposit list?
droplet/nuclear area B-score, replicate 1: 0.0868

Which result is listed for O-fut1 (O-fucosyltransferase 1) [DRSC06138]?
droplet/nuclear area B-score, replicate 1: 0.1

Which result is listed for axed (axundead) [DRSC08833]?
droplet/nuclear area B-score, replicate 1: -1.24

For axed (axundead) [DRSC10982], what does the deposit list?
droplet/nuclear area B-score, replicate 1: 2.41

With Gga [DRSC18260], how do the results read?
droplet/nuclear area B-score, replicate 1: 0.33

Which result is listed for CG13026 [DRSC09906]?
droplet/nuclear area B-score, replicate 1: 0.0103

For CG4294 [DRSC04460], how do the results read?
droplet/nuclear area B-score, replicate 1: 1.47

What is on record for G6P (Glucose-6-Phosphatase) [DRSC00414]?
droplet/nuclear area B-score, replicate 1: 2.57

Which result is listed for Ank (Ankyrin) [DRSC17127]?
droplet/nuclear area B-score, replicate 1: 0.921

With Pcd (pterin-4a-carbinolamine dehydratase) [DRSC16785], how do the results read?
droplet/nuclear area B-score, replicate 1: 0.212

What is on record for CG31826 [DRSC03357]?
droplet/nuclear area B-score, replicate 1: 0.416

What did the screen give for mRpS16 (mitochondrial ribosomal protein S16) [DRSC07152]?
droplet/nuclear area B-score, replicate 1: -1.28

How did the screen score Irbp18 (Inverted repeat binding protein 18 kDa) [DRSC10612]?
droplet/nuclear area B-score, replicate 1: -0.815

With jtb (jetboil) [DRSC06868], what was measured?
droplet/nuclear area B-score, replicate 1: -0.338

What is on record for ome (omega) [DRSC09322]?
droplet/nuclear area B-score, replicate 1: -0.489

What is on record for ome (omega) [DRSC10282]?
droplet/nuclear area B-score, replicate 1: 3.07

For ome (omega) [DRSC11380], what was measured?
droplet/nuclear area B-score, replicate 1: -0.713

How did the screen score Mcm10 (Minichromosome maintenance 10) [DRSC03162]?
droplet/nuclear area B-score, replicate 1: -0.0815

Which result is listed for Ccp84Ae [DRSC12590]?
droplet/nuclear area B-score, replicate 1: -1.02

Ordered by “droplet/nuclear area B-score, replicate 1” (low to high): 5 of the entries above
axed (axundead) [DRSC08833] | droplet/nuclear area B-score, replicate 1: -1.24
BomT2 (Bomanin Tailed 2) [DRSC06631] | droplet/nuclear area B-score, replicate 1: 0.0868
O-fut1 (O-fucosyltransferase 1) [DRSC06138] | droplet/nuclear area B-score, replicate 1: 0.1
Gga [DRSC18260] | droplet/nuclear area B-score, replicate 1: 0.33
axed (axundead) [DRSC10982] | droplet/nuclear area B-score, replicate 1: 2.41
